{"sequences": {"note": "Protein sequences, listed by entry. Tags and fused reporters are not part of them. Residues count along the entry.", "UniProt Q9Z2C8, whole entry": "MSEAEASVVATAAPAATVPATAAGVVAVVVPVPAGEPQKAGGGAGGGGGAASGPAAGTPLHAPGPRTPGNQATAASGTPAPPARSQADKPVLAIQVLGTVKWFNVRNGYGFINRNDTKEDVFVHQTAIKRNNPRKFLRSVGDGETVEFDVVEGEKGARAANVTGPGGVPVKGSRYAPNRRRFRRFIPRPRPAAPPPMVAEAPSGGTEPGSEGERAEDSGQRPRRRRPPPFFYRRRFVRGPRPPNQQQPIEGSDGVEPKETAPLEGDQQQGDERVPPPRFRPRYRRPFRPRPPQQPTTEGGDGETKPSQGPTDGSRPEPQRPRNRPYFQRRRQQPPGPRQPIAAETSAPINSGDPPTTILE", "UniProt Q9Y2T7, 85-177": "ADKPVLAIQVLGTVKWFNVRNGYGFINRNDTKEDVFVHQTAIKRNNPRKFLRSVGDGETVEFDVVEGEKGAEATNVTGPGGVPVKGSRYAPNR"}, "source": "paper PMC11197489", "key": {"[1]": {"biological_target": "YBX2 from testis lysate (UniProt Q9Z2C8)", "experiment": "pull-down", "conditions": "pull-down: 100 mM NaCl, 10 mM Tris-HCl pH 7.6, 2 mM EDTA, 0.5% NP-40, 4 C, protein in an extract, label: 5' biotin"}, "[2]": {"biological_target": "hYBX2 CSD (EMSA WT) (human) (UniProt Q9Y2T7)", "experiment": "EMSA", "conditions": "m5C at positions 11 and 13; EMSA: 50 mM Tris-HCl pH 7.5, 100 mM NaCl, 0.4 mM EDTA, 0.1% NP-40, 1 mM DTT, 50% glycerol, BSA, on ice, 0.2% glutaraldehyde; recombinant protein; protein details: His6-SUMO removed by Ulp1; label: 5' biotin"}}, "note": "The exact form of at least one protein or probe is not confirmed. For part of these data: At least one result comes from cells or an extract, where the contact may be indirect. For part of these data: Weaker means in comparison with the reference protein, sequence or condition of that experiment. At least one verdict was read from the data and is not stated in words by the source.", "data": [{"sequence": "AGAGUGAAACUCCAUCUCAAAC [pull-down m5C RNA]", "values": [{"measurement": "binding result", "setting": "[1]; m5C at positions 12 and 13", "value": "binds"}]}, {"sequence": "AGAGUGAAACUCCAUCUCAAAC [pull-down unme-C RNA]", "values": [{"measurement": "binding result", "setting": "[1]", "value": "binds more weakly"}]}, {"sequence": "CGACGGCGGUCUCGGGAACC [EMSA m5C RNA]", "values": [{"measurement": "binding result", "setting": "[2]", "value": "binds"}]}]}
